Reference: PubChem BioAssay AID652259 (Drosophila RNAi Screening Center, 2013)

Purpose: 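Genome-wide hunt for genes that control Wingless pathway activity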 (primary screen)
Cells: Drosophila clone 8 imaginal disc epithelial cells
Knock-down reagent: long dsRNA against Drosophila genes
Treatment: pathway stimulated by co-transfected Wingless expression plasmid
Measurement: 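Firefly luciferase from a tcf-site Wingless reporter, measured alongside co-transfected Renilla luciferase that tracks transfection; pathway stimulated by a Wingless plasmid; the firefly-to-Renilla ratio is not deposited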
Scale: firefly reporter light: higher = more Wg reporter light, before normalisation; Renilla control light: higher = more transfected or surviving cells
Hit rule: 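Strong candidates differ from their plate mean by at least two out of four per-plate statistical tests; weak candidates meet just one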
Calls: active = candidate regulator (raises or lowers reporter); inactive = not a candidate
In all, the deposit lists about 22,000 reagents; below is a random part of those with a known target gene and a result. Over the whole deposit, 233 (1.1%) were called active. 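Light values are raw, unnormalised plate reads; the ratio scores behind the reporter calls were not deposited.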 A plus sign joins genes that one reagent is predicted to hit. The record does not give: the amount of reagent, the time to read-out, the dose of the treatment.

| gene | DRSC id | reporter change call, replicate 1 | firefly reporter light, replicate 1 | firefly reporter light, replicate 2 | Renilla control light, replicate 1 | Renilla control light, replicate 2 | Outcome |
| --- | --- | --- | --- | --- | --- | --- | --- |
| CG4970 | DRSC02796 | Wg reporter activity raised | 4546 | 10240 | 568 | 4056 | inactive |
| CG32264 | DRSC08061 | – | 3400 | – | 858 | – | inactive |
| CG32264 | DRSC08167 | – | 4267 | – | 2521 | – | inactive |
| CG32264 | DRSC08169 | – | 3808 | – | 2216 | – | inactive |
| CG32264 | DRSC08285 | – | 9691 | – | 3699 | – | inactive |
| CG32264 | DRSC08437 | Wg reporter activity raised | 5175 | – | 1108 | – | inactive |
| CG31482 | DRSC12582 | – | 11051 | – | 3085 | – | inactive |
| Acbp2 | DRSC11141 | – | 1706 | 9804 | 1219 | 4584 | inactive |
| Acer | DRSC01852 | – | 14549 | – | 3024 | – | inactive |
| CG12926 | DRSC06239 | – | 3660 | 12000 | 1344 | 4182 | inactive |
| CG12926 | DRSC21930 | – | 3.68e5 | 3.86e5 | 1.65e5 | 1.60e5 | inactive |
| Ste:CG33238 + Ste:CG33241 + Ste:CG33236 + 11 more | DRSC19004 | – | 4182 | – | 1104 | – | inactive |
| Ste:CG33238 + Ste:CG33241 + Ste:CG33236 + 11 more | DRSC21260 | – | 13377 | – | 7017 | – | inactive |
| Sry-alpha | DRSC16867 | – | 6215 | – | 2838 | – | inactive |
| CG31775 + CG42586 | DRSC22289 | – | 7.89e5 | 8.22e5 | 3.54e5 | 4.16e5 | inactive |
| conu | DRSC07810 | – | 3730 | – | 730 | – | inactive |
| CG42399 | DRSC00322 | – | 4688 | 8502 | 1464 | 2688 | inactive |
| CG42399 | DRSC00661 | – | 2070 | 8537 | 1232 | 3170 | inactive |
| CG42579 | DRSC20391 | – | 3696 | – | 1408 | – | inactive |
| gammaCOP | DRSC16955 | – | 15835 | – | 12385 | – | inactive |
| CG15019 | DRSC08473 | – | 1661 | 10608 | 1309 | 3667 | inactive |
| CG31051 | DRSC15034 | – | 3530 | 11223 | 1048 | 2776 | inactive |
| CG42615 | DRSC05121 | – | 26208 | – | 12880 | – | inactive |
| Arts + Apl | DRSC10349 | – | 9107 | – | 3968 | – | inactive |
| CG8065 | DRSC10959 | – | 7874 | – | 2106 | – | inactive |
| CG13066 | DRSC09949 | – | 7808 | – | 3443 | – | inactive |
| Nha2 + asRNA:CR43454 | DRSC13594 | – | 3076 | – | 1570 | – | inactive |
| nebu | DRSC09807 | – | 2790 | – | 816 | – | inactive |
| nebu | DRSC09808 | – | 5042 | – | 3004 | – | inactive |
| CG15545 | DRSC15083 | – | 10528 | – | 2704 | – | inactive |
| l(3)mbn | DRSC08793 | – | 3131 | – | 1816 | – | inactive |
| CG10177 | DRSC14201 | – | 10300 | – | 9696 | – | inactive |
| B-H2 | DRSC19335 | Wg reporter activity raised | 25040 | – | 2486 | – | active |
| Nph | DRSC16342 | – | 8877 | – | 3899 | – | inactive |
| rgn | DRSC11609 | – | 4512 | – | 825 | – | inactive |
| CG11381 | DRSC17780 | – | 14933 | – | 5554 | – | inactive |
| pyd | DRSC12712 | – | 4736 | – | 2208 | – | inactive |
| pyd | DRSC14387 | – | 6146 | – | 2311 | – | inactive |
| pyd | DRSC14445 | – | 14077 | – | 3028 | – | inactive |
| pyd | DRSC14509 | – | 19715 | – | 5308 | – | inactive |
| pyd | DRSC16547 | – | 7492 | – | 2330 | – | inactive |
| pyd | DRSC16548 | – | 25139 | – | 3789 | – | inactive |
| pyd | DRSC17041 | – | 17383 | – | 5261 | – | inactive |
| pyd | DRSC21523 | – | 5.80e5 | 5.84e5 | 3.20e5 | 2.45e5 | inactive |
| CG33673 | DRSC00084 | – | 24124 | – | 12433 | – | inactive |
| Abcd3 | DRSC19488 | – | 23040 | – | 12658 | – | inactive |
| Datp | DRSC01102 | – | 22880 | – | 10840 | – | inactive |
| thetaTry | DRSC07705 | – | 5506 | – | 2700 | – | inactive |
| mRpS6 | DRSC08470 | – | 2535 | 4710 | 1506 | 2520 | inactive |
| Atg3 | DRSC10736 | – | 7744 | – | 3978 | – | inactive |
| Atg3 | DRSC21758 | – | 5.99e5 | 7.06e5 | 3.89e5 | 2.97e5 | inactive |
| Tmem63 | DRSC06063 | – | 2437 | 5040 | 897 | 2067 | inactive |
| CG14780 | DRSC18566 | – | 13592 | – | 13482 | – | inactive |
| row | DRSC07076 | Wg reporter activity raised | 13814 | – | 1696 | – | active |
| row | DRSC07077 | – | 6227 | – | 1488 | – | inactive |
| Nup58 | DRSC16235 | – | 13674 | – | 2505 | – | inactive |
| CG32683 | DRSC17990 | – | 23341 | – | 10176 | – | inactive |
| CG32683 | DRSC18232 | – | 14213 | – | 10240 | – | inactive |
| CG32683 | DRSC18233 | – | 11850 | – | 10263 | – | inactive |
| NdufA3 | DRSC18431 | – | 16739 | – | 11282 | – | inactive |
| stai | DRSC02920 | – | 2473 | 4528 | 659 | 1792 | inactive |
| stai | DRSC22235 | – | 6.42e5 | 7.32e5 | 2.31e5 | 2.71e5 | inactive |
| mAcon1 | DRSC01853 | – | 2644 | 6212 | 640 | 2528 | inactive |
| Dph3 | DRSC14923 | – | 9974 | – | 3659 | – | inactive |
| CG34198 | DRSC05803 | – | 15473 | – | 8348 | – | inactive |
| CG15296 | DRSC17983 | – | 18224 | – | 6986 | – | inactive |
| Pgcl | DRSC18815 | – | 20432 | – | 14673 | – | inactive |
| Rtel1 | DRSC18343 | – | 17867 | – | 8560 | – | inactive |
| CG13560 | DRSC04198 | – | 3223 | 5713 | 982 | 2757 | inactive |
| pug | DRSC17036 | – | 9484 | – | 2768 | – | inactive |
| CG34280 | DRSC13229 | – | 4338 | – | 3152 | – | inactive |
| CG32507 | DRSC20421 | – | 6186 | – | 2387 | – | inactive |
| CG18131 | DRSC00517 | – | 4212 | 12536 | 810 | 1467 | inactive |

Part of the list above in another layout:
{"gene": "mAcon1", "DRSC id": "DRSC01853", "firefly reporter light, replicate 1": 2644, "firefly reporter light, replicate 2": 6212, "Renilla control light, replicate 1": 640, "Renilla control light, replicate 2": 2528, "Outcome": "inactive"}
{"gene": "Dph3", "DRSC id": "DRSC14923", "firefly reporter light, replicate 1": 9974, "Renilla control light, replicate 1": 3659, "Outcome": "inactive"}
{"gene": "CG34198", "DRSC id": "DRSC05803", "firefly reporter light, replicate 1": 15473, "Renilla control light, replicate 1": 8348, "Outcome": "inactive"}
{"gene": "CG15296", "DRSC id": "DRSC17983", "firefly reporter light, replicate 1": 18224, "Renilla control light, replicate 1": 6986, "Outcome": "inactive"}
